Results as given in US6670383B2, “Pyranocoumarin compounds as a novel pharmacophore with anti-TB activity” (priority 2001, dated 2003).

Assay: IC50 of Table 2 (used for SI = IC50/MIC; test not described)
Conditions: MIC against strain H37Rv

Compound	SI (IC50/MIC)
CCCc1cc(=O)oc2c3c(c4c(c12)OC(C)(C)C=C4)O[C@@H](C)[C@H](C)[C@H]3O [(−)-Calanolide A (2), (−)-Calanolide A]	>1.6
(+)-Calanolide A [(+)-Calanolide A (1)]	2.43
